For the assay, the target named is non-muscle myosin heavy chain IIA (endogenous, HeLa) (human (endogenous in HeLa)) (UniProt P35579). Description: affinity purification with mass spectrom.

Protein sequences, listed by entry. Tags and fused reporters are not part of them.
UniProt P35579: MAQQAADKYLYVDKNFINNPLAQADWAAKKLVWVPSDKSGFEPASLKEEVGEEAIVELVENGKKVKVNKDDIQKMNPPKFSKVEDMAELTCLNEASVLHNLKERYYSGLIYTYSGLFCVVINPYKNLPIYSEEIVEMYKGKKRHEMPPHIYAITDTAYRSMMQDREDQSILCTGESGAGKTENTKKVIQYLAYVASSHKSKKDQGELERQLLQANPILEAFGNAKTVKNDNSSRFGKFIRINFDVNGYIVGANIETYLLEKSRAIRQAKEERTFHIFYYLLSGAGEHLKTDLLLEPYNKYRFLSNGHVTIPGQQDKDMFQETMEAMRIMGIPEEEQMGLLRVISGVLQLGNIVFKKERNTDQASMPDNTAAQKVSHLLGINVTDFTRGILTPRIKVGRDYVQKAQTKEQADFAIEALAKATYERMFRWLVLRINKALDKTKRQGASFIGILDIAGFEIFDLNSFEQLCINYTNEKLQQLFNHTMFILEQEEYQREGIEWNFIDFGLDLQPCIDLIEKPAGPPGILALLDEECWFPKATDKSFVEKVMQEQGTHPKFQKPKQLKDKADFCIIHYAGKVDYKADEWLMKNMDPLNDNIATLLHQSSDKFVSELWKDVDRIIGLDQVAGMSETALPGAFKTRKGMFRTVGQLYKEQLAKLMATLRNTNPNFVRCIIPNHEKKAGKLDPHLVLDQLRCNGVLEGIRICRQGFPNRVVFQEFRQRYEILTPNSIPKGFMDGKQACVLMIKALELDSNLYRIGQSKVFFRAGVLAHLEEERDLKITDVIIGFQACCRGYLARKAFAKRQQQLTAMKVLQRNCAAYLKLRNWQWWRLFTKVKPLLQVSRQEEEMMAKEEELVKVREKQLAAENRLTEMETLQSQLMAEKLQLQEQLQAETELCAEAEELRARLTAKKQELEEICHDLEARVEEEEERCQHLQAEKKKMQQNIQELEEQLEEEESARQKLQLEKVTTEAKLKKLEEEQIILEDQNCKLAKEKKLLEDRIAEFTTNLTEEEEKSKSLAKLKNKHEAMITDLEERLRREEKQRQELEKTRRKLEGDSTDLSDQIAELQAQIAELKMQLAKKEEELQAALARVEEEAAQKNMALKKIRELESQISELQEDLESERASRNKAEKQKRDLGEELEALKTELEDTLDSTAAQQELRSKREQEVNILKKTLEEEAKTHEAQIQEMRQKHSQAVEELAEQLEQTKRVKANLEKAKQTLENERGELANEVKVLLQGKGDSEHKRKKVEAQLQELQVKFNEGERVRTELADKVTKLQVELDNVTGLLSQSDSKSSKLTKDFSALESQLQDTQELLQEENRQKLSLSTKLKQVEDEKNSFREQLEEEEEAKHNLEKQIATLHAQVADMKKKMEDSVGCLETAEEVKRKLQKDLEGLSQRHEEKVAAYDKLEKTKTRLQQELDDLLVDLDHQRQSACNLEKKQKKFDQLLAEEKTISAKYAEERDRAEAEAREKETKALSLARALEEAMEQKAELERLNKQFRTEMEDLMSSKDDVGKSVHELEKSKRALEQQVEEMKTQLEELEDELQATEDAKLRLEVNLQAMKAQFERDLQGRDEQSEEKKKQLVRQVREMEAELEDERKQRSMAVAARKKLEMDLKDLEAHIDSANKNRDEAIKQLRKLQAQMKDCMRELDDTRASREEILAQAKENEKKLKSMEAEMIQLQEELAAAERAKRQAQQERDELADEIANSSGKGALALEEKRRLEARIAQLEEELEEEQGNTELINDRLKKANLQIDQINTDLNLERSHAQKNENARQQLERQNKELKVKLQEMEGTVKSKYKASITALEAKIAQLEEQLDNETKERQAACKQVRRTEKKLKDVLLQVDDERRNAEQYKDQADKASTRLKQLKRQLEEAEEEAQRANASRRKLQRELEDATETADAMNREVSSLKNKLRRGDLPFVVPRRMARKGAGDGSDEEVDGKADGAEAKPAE
UniProt P09874: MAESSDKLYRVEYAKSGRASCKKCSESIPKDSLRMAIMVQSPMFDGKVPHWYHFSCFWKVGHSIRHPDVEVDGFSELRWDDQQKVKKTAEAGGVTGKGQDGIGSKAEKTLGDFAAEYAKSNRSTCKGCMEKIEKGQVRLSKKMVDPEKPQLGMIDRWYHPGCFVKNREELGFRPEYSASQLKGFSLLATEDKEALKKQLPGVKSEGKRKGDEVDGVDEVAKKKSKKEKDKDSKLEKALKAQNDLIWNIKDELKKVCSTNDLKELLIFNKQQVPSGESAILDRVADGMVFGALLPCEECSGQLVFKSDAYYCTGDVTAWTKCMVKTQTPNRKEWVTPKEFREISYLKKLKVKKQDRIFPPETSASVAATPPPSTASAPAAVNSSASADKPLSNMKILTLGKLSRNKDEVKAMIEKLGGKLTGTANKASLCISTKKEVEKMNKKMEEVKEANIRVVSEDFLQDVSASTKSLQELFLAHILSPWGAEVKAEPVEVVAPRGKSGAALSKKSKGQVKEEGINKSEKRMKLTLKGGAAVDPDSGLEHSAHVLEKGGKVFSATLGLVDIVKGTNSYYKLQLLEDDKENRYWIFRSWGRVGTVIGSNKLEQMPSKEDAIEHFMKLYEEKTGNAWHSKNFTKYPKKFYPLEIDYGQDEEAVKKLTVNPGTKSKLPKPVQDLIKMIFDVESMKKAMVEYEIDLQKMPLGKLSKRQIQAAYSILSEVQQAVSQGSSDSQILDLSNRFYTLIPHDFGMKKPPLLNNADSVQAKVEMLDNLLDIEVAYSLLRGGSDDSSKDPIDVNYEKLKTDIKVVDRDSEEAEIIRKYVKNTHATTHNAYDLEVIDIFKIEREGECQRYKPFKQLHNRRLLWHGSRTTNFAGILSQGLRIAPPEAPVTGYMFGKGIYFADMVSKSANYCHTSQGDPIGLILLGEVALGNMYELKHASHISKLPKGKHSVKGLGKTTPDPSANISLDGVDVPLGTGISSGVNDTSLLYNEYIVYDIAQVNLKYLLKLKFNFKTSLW

No constants are given. Whether binding was seen depends on the method and setting. In cells and extracts the contact can be indirect. Here binding means that the protein was enriched with, or labelled near, the bait; the list need not be complete.

For “poly (ADP-ribose) polymerase 1 (endogenous, HeLa) (from UniProt P09874 1-1014)”, the binding entry is listed as “binds”.

Values taken from publication PMC11092326.
